Data taken from ChEMBL document CHEMBL3988442, “University of Dundee, Small-Polar-MMV Screening Library” (2021).

Results are given as percent effect.
The controls that fix the scale are not given in the record; negative values are as filed.
Compounds were drawn at random from those tested, without regard to their results.
Two or more numbers in one place are separate tests of the same structure; such repeats can differ widely.

A: 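Growth of Mycobacterium tuberculosis over 4 days (cholesterol / DPPC medium with tyloxapol); the read-out is not stated. Tested at 50 µM. The record gives no direction; compounds that gave an IC50 in retests scored well above the rest, so higher reads as more growth inhibition. About 69,000 compounds were tested under these conditions; 0.54% (about 370) showed 50% or more at least once.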
B: 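Whole-cell growth test on Mycobacterium tuberculosis, read after 3 days in glucose-containing 7H9 medium; the read-out is not stated. Tested at 50 µM. Direction is inferred from retests: higher values go with more growth inhibition. Of about 69,000 compounds tested this way, about 760 (1.1%) reached 50% or more in at least one test.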

structure	A	B
COCc1nc(C(=O)N(Cc2ccccc2)CC(C)C(=O)O)cs1 (stereo not drawn)	22.3%	22.85% and 45.94%
CC(SCCC(=O)NC(N)=O)c1c(F)cccc1F (stereo not drawn)	-17.39%	2.568% and 7.173%
CCc1c(C(=O)NC2CCS(=O)(=O)C2)cnn1-c1ccc(C)cc1 (stereo not drawn)	-11.72%	10.28%
CC1(C)CNC(=O)c2nc(CCCN3CCCC3)[nH]c2C1	5.096%	8.354%
c1cnc2nc(N3CCCC3c3nnc4n3CCCCC4)ccc2n1 (stereo not drawn)	-3.239%	-19.14%
O=C(O)C(F)(F)F.O=C(O)C(F)(F)F.[H][C@@]12CCN(C3CCCC3)C[C@]1(C(=O)NCc1ccccn1)CCO2	14.56%	-2.915%
Cc1ccc(-c2ccnc(NCC(O)c3ccc(O)cc3)n2)c(C)n1 (stereo not drawn)	11.12%	-8.299% and 7.937%
COCCCNC(=O)Cn1c(-c2cccc(Cl)c2)nc(C)cc1=O	4.709%	48.75%
CCC(C(=O)NC1(C(N)=O)CCCC1)n1cccn1 (stereo not drawn)	-13.63%	-8.414% and -10.83%
O=C(c1ncoc1C1CCCO1)N1CCC2(CCCCC2)CC1 (stereo not drawn)	44.49%	4.817%
Cc1nn(C)cc1C1SCC(=O)Nc2c1c(O)nn2C(C)C (stereo not drawn)	14.8%	26.96%
CC1c2cccn2CCN1C(=O)CCCc1nc(-c2ccco2)no1 (stereo not drawn)	-8.974%	-34.69% and -5.486%
COCC(=O)N1CCC2(C1)c1ccccc1S(=O)(=O)N2CC1CC1 (stereo not drawn)	11.11%	6.023%
Cc1nccc(-c2cccc(-c3ccn(CC4CCNC4)n3)c2)n1 (stereo not drawn)	6.051%	14.04%
CSc1[nH]c(=O)c(C(=O)N2CCCC2C2CCCC2)cc1C#N (stereo not drawn)	-8.612%	11.5%
Cc1nc(CCN)cc(N2CCOc3ccc(Cl)cc3C2)n1	-13.29%	54.98%
COc1ccc(C(=O)N2CCC(Oc3cccc(C)c3)(C(=O)O)CC2)o1	-20.61%	-0.7341%
O=C(NCCc1ccccn1)C1=NN(c2ccccc2)C(=O)CN1	-17.46%	-16.43%
Clc1cnc(NCc2ccccc2N2CCOCC2)nc1	39.99%	45.16%
Cc1cc(C)cc(C(=O)Nc2cccc(CN3CCCC3C(N)=O)c2)c1 (stereo not drawn)	-4.965% and -6.547%	12%
Cc1cc(C2CCCN(C(=O)COc3cc(C)on3)C2)n[nH]1 (stereo not drawn)	-28.51%	-36.37%
[H][C@@]12CCN(C(=O)C3CCSCC3)C[C@]1(COC)CCO2	-13.76%	11.81%
CSCCC(Nc1nc(C)cc(C)n1)C(=O)NC1CCCC1 (stereo not drawn)	6.537%	-0.15%
CCNC(=O)N[C@H]1C[C@@H](Cc2cc(CN3CCCCC3)on2)C1(C)C	23.67%	13.16% and 0.741%
O=C(COC1CCCC1)NCc1ccc(O)c(F)c1	41.5%	20.62%
Cc1cc(C(=O)NC2CC(=O)N(C(C)C)C2=O)c(C)n1C(C)C (stereo not drawn)	17.87%	38.27%
CC(Cn1cccn1)NC(=O)Nc1ccccn1 (stereo not drawn)	-19.58%	-8.15%
CS(=O)(=O)N1Cc2ccccc2C2(CCN(C(=O)c3ccno3)CC2)C1	-42.34%	-39.68%
c1ccc(CCCN2CCOC(Cn3cccn3)C2)cc1 (stereo not drawn)	4.694%	-1.033%
CCOCCn1nc(C)cc1C(=O)N1CC[C@](C)(O)[C@H](C)C1	-6.547%	-17.39%
Cn1ccc(C(=O)N2CCOC3(COCCN(CC4CC4)C3)C2)n1.O=C(O)C(F)(F)F (stereo not drawn)	3.952%	15.67%
CCN1C(=O)CC(N(C)Cc2nc3ccccc3c(=O)[nH]2)C1=O (stereo not drawn)	-44.24%	-18.01%
Cc1nc(CN2CCCC(N(C)CC3CCCC3)C2)no1 (stereo not drawn)	-6.257%	-46.94% and 2.962%
[H][C@@]12CN(c3nc4c(cc3C(N)=O)CCC4)C[C@]1([H])N(C1CCCC1)C(=O)O2	-4.567%	2.211%
COCCCN1CC2(CCCN(CCn3cc(Cl)cn3)C2)CCC1=O (stereo not drawn)	-3.501%	-9.096%
CCn1cnnc1CNC(=O)N(C)Cc1cccc(OC(F)F)c1	-19.93%	-14.45%
O=C(NC[C@H]1OC[C@@H](NCc2ccc(F)cc2)[C@@H]1O)c1ccncc1	-1.192%	8.199% and 1.253%
CCOc1ccc(Cl)cc1CCNC(=O)N1CCCC(CO)C1 (stereo not drawn)	10.82%	8.627%
c1c[nH]c(CN2CCCC(Cc3ccc(NC4CCCC4)nn3)C2)n1 (stereo not drawn)	-5.902%	6.945%
CCSCc1cccc(NC2CCN(C)C2=O)c1 (stereo not drawn)	10.94%	4.018%
Cn1cc(Br)cc(NC(=O)CC(C)(C)C)c1=O	2.561%	7.345%
Cc1cc(C)n(-c2cncc(NCCNC(=O)CC3CCCC3)n2)n1	-6.377%	0.9338%
CCC(O)CNC(=O)C1(N(C)Cc2ccccc2)Cc2ccccc2C1 (stereo not drawn)	4.97%	-18.92%
CCn1cc(NC(=O)Nc2ccc3c(c2)OCCO3)cn1	-9.188%	3.296%
Cc1noc(C)c1CNC(=O)N1CCC(CO)CC1	-7.766%	-17.69%
CC(C)(C)OC(=O)N1CCC[C@H](NCc2cc[nH]c2)C1	22.93%	19.45%
O=C(O)C(F)(F)F.[H][C@@]12C[C@@H](Oc3cncnc3)CN1CCN(C(=O)Cc1cccc(F)c1)C2	-3.559%	-5.083% and -5.223%
CC(c1nc(C(C)(C)C)no1)N1CCN(Cc2ccco2)CC1 (stereo not drawn)	-16.72%	19.61%
CN(Cc1cccnc1)CC1CN(C(N)=O)Cc2nccn2C1 (stereo not drawn)	-26.8%	17.08%
COc1ccc(NC(=O)Cc2c(C)nc3c(c2C)c(=O)[nH]n3C)cn1	10.48%	1.669%
CC(C)C(=O)NC1CCCN(C(=O)c2cc(Cl)ccc2O)C1 (stereo not drawn)	-14.67%	2.591%
C=Cc1ccc(CN2C(=O)C3(CCNCC3)Nc3ccccc32)cc1	54.02%	85.39%
Cc1ccc(CN2CCC3(CC2)C(=O)N(CC(C)C)CCN3C)s1.O=C(O)C(F)(F)F.O=C(O)C(F)(F)F	-18.82% and -17.31%	-36.74%
O=C1CN([C@@H]2CC[C@@H](NS(=O)(=O)c3ccc(F)cc3)[C@H]2O)CCN1	-11.68% and -16.83%	-20.38%
CNC(=O)c1sccc1S(=O)(=O)Nc1ccc(C)cc1	-8.407%	-5.052%
Cc1nc2c(c(NCCN3CCOCC3)n1)CCN(C)C2	-2.605% and -0.4344%	-5.602%
O=C(Cc1cccc(F)c1F)NS(=O)(=O)c1ccc(Cl)cn1	2.85%	-4.994% and -5.094%
O=C(O)C(F)(F)F.[H][C@@]12CCN(CC3CCOCC3)C[C@@]1([H])O[C@H](c1nc(C)no1)C2	0.3319%	-2.353% and 4.673%

Some entries from above, unchanged:

| structure | A | B |
|---|---|---|
| `Cc1ccc(-c2ccnc(NCC(O)c3ccc(O)cc3)n2)c(C)n1` (stereo not drawn) | 11.12% | -8.299% and 7.937% |
| `CCNC(=O)N[C@H]1C[C@@H](Cc2cc(CN3CCCCC3)on2)C1(C)C` | 23.67% | 13.16% and 0.741% |
| `Cc1nn(C)cc1C1SCC(=O)Nc2c1c(O)nn2C(C)C` (stereo not drawn) | 14.8% | 26.96% |
| `COCc1nc(C(=O)N(Cc2ccccc2)CC(C)C(=O)O)cs1` (stereo not drawn) | 22.3% | 22.85% and 45.94% |